Results are given in words; binding and its absence hold for the method and conditions named. Some binding calls cover weakened binding; strength is not graded here.
Molecular target: Cdc2 (Drosophila melanogaster) (UniProt P23572)
Experiment: two-hybrid; LexA-based yeast two-hybrid: LexA BD fusions (pHZ5-NRT, strain Y309) mated with B42 AD fusions (pJZ4-NRT, strain RFY231); pooled mating in two phases and library screening; LEU2 (growth without leucine, 0-3) and lacZ (X-Gal, 0-5) reporters on galactose and maltose medium, 30°C; interactions re-tested one-on-one

By UniProt entry, the sequences of proteins in these tests, tags left out.
UniProt P23572: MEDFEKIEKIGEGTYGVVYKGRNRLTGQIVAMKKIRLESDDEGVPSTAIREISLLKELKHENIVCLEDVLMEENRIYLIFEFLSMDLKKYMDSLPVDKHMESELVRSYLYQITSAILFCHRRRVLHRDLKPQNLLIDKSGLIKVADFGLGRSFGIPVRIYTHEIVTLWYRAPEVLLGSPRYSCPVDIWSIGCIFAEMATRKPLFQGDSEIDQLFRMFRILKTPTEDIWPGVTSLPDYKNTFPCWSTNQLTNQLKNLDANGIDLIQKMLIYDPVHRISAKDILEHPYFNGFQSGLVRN

Binder	binding
CycE (protein, UniProt P54733 1-709) MGLNAKSVCSTSSTEPNGSIVTTAPSNGEVSSSIVVVVSSSSISSSSDSPIAILPHPDPIPSTSFSSASQRSEEELPGTSAASRTDEMCSCDSQNLAASTAATSNGNKRKRRLSSDSNEDPELGFEPPSAKRQQRLPALYGSEQGNLSSVASSVYTSPVVSVDGQSTQELLSIRSSPAEDLSEAPHSPLPDSPDSPPSPDRGSKQTPVVVRYAAEQVVTSTVVTQKTEDDDLLDDSCEDYSYDEDDEDDVEEEDDDVEIYSSTISPASSGCSQQQAVNGERTPGLPKHQEQIHHPVSDLMINMRTPMSPAVENGLRQCPLPALAWANAADVWRLMCHRDEQDSRLRSISMLEQHPGLQPRMRAILLDWLIEVCEVYKLHRETFYLAVDYLDRYLHVAHKVQKTHLQLIGITCLFVAAKVEEIYPPKIGEFAYVTDGACTERDILNHEKILLQALDWDISPITITGWLGVYMQLNVNNRTPASFSQIGRQKSAEADDAFIYPQFSGFEFVQTSQLLDLCTLDVGMANYSYSVLAAAAISHTFSREMALRCSGLDWQVIQPCARWMEPFFRVISQKAPYLQLNEQNEQVSNKFGLGLICPNIVTDDSHIIQTHTTTMDMYDEVLMAQDAAHAMRARIQASPATALRAPESLLTPPASSHKPDEYLGDEGDETGARSGISSTTTCCNTAASNKGGKSSSNNSVTSCSSRSNP	binds
twe (protein, UniProt Q03019 1-426) MASKRLMLDVEEEDDESGACGQENFDPHDADMEYQAKRRKSAVQETPLQWMLKRHIPASTTVLSPITELSQNMNGARLDGTPKSTQRIPANRTLNNFNSLSSRTLGSFSSSCSSYESGNSLDDEYMDMFEMESAENHNLELPDDLEVLLSGQLKSESNLEEMSNKKGSLRRCLSMYPSEQPEEAVQEPDQETNMPMKKMQRKTLSMNDAEIMRALGDEPELIGDLSKPCTLPCLATGIRHRDLKTISSDTLARLIQGEFDEQLGSQGGYEIIDCRYPYEFLGGHIRGAKNLYTRGQIQEAFPTLTSNQENRRIYVFHCEFSSERGPKLLRYLRSNDRSQHTHNYPALDYPELYILHNGYKEFFGLYSQLCQPSQYVPMLAPAHNDEFRYFRAKTKSWQCGEGGDSGIGGGGSRGLRKSRSRLLYAE	binds
